Patent US8152784B2, “Method for treating or preventing steroid-induced glaucoma” (Wisconsin Alumni Research Foundation, priority 2005, dated 2012)
Some results were stated once for a whole list of compounds, not compound by compound.

System: human trabecular meshwork cells
Experiment: CLAN formation in cultured human trabecular meshwork cells spread on coated coverslips, immunofluorescence microscopy
Assay type: cell-based
Settings: adsorbed substrate on coverslip, cells spread three hours
Protocol: Cultured, diploid human trabecular meshwork cells obtained from trabecular meshwork explants were plated on coverslips coated with extracellular matrix materials, including poly-L-lysine (20 nM in PBS), fibronectin (100 nM in PBS), type I collagen (20 nM in PBS), type IV collagen (20 nM in PBS), vitronectin (20 nM in PBS), vascular cell adhesion molecule (VCAM-1, an α4β1 ligand; 20 nM in PBS), fibronectin III7-10 domain (an α5β1 ligand; 20 nM in PBS), fibronectin III12-14 domain (20 nM in PBS), or fibronectin IICS domains (20 nM in PBS), or activating antibodies to β1 (anti-B3B11; Chemicon Int'l, Inc.; Temecula, Calif.; 10 μg/ml), β3 (anti-AP-5; The Blood Center of Southeastern Wisconsin; Milwaukee, Wis.; 8 μg/ml), or α2β1 (anti-JBS2; Chemicon Int'l, Inc.; 6 μg/ml) integrins. In experiments using antibodies as substrates, coverslips were pre-coated with 1:100 unconjugated goat anti-mouse IgG (Jackson Immunoresearch, Inc.; West Grove, Pa.). In some instances, anti-β3 antibodies were used as soluble ligands. […]
CLAN formation was assessed by immunofluorescence microscopy. […] Anti-F-actin was detected using either Alexa 488 conjugated goat anti-rabbit IgG or Alexa 488 conjugated donkey anti-rabbit IgG. All monoclonal antibodies were detected using Alexa 546 conjugated goat anti-mouse IgG.

In the case of “type I collagen: extracellular matrix material coated on coverslips (20 nM in PBS)”, the “CLAN formation, % of the cells” value is reported as 4-5%.
